Data: the supplement of paper PMC10849652
This is one part of the list.

Sequences of proteins named here, by UniProt entry; tags and fusion partners are left off. A change or cut given only in a name is not applied to a line headed by its entry.
UniProt Q8NFW8: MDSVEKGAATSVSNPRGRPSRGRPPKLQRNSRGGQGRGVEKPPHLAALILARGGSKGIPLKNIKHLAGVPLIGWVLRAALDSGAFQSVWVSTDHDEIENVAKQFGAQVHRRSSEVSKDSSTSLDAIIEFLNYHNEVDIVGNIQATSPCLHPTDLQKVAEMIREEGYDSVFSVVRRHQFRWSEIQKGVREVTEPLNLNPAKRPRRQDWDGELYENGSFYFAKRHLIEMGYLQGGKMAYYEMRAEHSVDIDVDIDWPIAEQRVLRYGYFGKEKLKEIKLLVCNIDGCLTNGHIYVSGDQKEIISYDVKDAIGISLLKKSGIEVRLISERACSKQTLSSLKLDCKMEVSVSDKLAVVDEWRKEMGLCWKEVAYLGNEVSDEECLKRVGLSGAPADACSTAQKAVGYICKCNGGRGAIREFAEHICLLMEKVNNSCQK
UniProt P30085: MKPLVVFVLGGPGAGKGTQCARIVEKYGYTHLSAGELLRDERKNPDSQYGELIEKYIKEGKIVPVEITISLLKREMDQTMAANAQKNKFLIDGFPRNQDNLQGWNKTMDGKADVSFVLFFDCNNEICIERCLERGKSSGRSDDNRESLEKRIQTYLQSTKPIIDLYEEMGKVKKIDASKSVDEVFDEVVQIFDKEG
UniProt Q9NRP2: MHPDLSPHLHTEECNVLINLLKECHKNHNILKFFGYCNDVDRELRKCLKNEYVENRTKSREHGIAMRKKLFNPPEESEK
UniProt Q9NX76: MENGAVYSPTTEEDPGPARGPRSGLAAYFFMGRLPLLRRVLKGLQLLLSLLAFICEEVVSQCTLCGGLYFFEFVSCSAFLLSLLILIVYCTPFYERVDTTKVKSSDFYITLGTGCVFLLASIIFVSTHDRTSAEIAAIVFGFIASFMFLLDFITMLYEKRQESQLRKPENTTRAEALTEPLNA
UniProt Q9NZ45: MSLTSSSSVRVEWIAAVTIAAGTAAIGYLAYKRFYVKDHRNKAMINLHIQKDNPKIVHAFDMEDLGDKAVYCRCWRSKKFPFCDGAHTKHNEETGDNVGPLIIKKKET
UniProt Q9Y2R0: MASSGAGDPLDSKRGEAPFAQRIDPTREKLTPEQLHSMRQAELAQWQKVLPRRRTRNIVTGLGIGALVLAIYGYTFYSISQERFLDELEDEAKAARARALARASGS
UniProt P09543: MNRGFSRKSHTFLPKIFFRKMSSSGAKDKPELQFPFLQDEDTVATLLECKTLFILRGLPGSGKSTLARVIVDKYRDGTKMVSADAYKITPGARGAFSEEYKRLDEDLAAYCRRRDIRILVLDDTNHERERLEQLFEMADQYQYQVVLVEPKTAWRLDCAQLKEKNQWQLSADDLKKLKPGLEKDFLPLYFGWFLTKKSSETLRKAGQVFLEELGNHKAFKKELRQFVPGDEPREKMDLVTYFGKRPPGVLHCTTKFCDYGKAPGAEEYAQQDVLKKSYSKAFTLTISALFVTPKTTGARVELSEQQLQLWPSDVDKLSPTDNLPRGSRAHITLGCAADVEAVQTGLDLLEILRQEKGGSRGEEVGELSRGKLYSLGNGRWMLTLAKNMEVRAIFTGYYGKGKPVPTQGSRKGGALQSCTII
UniProt P09497: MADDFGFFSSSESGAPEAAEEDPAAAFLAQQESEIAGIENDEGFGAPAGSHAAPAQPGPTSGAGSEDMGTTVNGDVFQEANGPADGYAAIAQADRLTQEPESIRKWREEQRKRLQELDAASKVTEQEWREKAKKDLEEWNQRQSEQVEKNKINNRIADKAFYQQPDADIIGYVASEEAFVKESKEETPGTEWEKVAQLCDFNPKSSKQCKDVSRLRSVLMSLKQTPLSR
UniProt Q96BR5: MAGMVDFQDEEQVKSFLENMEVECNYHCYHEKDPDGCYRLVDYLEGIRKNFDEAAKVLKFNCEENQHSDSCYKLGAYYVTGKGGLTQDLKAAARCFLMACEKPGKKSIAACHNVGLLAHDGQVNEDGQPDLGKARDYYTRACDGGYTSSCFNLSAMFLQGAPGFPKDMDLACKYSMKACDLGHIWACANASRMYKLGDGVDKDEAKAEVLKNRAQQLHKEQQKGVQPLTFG
UniProt Q7Z460: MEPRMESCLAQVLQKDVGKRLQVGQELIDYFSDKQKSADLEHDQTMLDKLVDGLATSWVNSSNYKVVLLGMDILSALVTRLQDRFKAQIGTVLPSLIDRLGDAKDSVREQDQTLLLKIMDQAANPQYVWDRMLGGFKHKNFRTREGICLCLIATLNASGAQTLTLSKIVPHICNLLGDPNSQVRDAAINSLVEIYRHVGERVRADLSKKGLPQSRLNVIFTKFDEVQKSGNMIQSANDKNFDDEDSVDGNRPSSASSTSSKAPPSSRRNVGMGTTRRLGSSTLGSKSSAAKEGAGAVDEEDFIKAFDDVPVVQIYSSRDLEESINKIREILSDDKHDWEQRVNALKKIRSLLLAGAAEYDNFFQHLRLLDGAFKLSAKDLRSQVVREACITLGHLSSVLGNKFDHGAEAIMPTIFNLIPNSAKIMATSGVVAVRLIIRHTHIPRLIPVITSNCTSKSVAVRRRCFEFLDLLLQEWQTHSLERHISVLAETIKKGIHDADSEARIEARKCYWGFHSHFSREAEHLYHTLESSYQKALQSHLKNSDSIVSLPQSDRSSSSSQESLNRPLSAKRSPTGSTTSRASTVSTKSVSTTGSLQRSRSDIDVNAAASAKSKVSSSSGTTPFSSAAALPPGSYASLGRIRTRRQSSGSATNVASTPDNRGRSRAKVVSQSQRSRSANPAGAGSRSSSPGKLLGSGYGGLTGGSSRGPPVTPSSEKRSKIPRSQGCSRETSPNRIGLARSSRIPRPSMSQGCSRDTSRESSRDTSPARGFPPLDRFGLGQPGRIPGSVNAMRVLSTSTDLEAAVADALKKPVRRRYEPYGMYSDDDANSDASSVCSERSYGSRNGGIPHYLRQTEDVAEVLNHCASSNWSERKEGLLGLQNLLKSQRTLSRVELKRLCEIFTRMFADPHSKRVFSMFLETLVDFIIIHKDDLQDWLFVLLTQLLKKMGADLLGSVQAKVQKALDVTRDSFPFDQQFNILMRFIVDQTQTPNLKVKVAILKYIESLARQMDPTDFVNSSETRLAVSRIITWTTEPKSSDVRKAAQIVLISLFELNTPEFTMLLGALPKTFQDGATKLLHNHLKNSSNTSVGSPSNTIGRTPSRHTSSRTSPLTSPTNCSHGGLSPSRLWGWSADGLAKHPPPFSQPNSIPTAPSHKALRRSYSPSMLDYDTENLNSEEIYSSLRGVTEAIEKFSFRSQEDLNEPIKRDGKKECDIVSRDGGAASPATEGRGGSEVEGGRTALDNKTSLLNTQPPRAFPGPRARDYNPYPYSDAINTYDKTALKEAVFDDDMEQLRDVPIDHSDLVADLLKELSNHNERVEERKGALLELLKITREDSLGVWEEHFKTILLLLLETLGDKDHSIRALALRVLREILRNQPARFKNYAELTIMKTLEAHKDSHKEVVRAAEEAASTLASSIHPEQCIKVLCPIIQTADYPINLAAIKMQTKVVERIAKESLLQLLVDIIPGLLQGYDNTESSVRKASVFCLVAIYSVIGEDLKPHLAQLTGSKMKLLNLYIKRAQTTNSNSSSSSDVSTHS
UniProt Q14008: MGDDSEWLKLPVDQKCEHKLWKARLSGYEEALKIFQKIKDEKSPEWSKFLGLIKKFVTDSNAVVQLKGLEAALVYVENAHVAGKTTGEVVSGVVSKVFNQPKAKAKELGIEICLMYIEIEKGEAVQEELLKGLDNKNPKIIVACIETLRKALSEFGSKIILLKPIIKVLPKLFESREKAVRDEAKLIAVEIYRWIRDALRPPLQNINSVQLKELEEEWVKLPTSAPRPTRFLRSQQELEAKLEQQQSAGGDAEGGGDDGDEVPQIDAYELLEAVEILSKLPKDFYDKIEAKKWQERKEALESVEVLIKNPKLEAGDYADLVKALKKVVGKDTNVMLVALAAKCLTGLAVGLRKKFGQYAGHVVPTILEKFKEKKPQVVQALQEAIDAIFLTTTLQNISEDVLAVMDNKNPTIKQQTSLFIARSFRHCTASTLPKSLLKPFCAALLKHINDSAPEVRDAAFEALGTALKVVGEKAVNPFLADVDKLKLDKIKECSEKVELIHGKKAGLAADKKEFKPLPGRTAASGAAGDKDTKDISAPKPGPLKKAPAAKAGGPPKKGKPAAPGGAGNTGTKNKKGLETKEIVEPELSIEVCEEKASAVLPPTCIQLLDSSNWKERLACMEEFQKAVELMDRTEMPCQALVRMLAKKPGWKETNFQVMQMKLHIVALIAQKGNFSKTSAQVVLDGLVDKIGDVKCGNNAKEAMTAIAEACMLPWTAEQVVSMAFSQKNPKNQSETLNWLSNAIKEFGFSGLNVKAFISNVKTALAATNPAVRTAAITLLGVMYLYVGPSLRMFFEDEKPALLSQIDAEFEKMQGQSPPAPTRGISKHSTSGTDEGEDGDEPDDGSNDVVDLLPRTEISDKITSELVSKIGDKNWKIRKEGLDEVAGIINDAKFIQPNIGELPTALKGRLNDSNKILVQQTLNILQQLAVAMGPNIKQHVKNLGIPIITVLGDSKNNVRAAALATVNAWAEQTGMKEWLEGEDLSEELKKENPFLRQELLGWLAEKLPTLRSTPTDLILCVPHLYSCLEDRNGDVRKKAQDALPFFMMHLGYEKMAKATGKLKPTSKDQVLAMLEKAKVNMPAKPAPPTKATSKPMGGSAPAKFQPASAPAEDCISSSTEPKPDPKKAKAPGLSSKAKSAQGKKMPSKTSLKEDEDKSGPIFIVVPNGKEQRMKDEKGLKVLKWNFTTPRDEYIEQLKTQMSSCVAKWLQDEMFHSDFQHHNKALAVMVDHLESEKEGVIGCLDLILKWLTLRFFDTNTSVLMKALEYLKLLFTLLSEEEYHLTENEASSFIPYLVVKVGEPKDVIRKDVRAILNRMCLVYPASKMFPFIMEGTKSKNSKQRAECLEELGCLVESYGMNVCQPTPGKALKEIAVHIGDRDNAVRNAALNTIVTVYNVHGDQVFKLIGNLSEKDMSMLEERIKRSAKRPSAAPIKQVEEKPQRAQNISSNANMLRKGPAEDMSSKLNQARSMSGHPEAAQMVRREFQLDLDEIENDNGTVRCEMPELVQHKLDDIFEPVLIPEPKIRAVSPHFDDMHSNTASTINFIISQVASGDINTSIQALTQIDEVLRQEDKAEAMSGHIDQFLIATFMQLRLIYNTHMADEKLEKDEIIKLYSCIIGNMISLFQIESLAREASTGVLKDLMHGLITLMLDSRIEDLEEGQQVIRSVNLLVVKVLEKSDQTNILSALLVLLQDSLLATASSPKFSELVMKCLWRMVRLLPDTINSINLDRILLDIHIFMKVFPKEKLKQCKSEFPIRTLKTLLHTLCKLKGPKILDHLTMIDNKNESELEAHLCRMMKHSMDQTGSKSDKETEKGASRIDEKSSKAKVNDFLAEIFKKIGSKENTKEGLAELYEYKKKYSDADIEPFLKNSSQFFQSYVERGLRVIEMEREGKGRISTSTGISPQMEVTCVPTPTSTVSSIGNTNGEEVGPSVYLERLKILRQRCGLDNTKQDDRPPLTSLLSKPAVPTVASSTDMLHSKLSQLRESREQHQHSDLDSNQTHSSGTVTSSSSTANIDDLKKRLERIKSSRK
UniProt Q9H9A5, whole entry, looked up: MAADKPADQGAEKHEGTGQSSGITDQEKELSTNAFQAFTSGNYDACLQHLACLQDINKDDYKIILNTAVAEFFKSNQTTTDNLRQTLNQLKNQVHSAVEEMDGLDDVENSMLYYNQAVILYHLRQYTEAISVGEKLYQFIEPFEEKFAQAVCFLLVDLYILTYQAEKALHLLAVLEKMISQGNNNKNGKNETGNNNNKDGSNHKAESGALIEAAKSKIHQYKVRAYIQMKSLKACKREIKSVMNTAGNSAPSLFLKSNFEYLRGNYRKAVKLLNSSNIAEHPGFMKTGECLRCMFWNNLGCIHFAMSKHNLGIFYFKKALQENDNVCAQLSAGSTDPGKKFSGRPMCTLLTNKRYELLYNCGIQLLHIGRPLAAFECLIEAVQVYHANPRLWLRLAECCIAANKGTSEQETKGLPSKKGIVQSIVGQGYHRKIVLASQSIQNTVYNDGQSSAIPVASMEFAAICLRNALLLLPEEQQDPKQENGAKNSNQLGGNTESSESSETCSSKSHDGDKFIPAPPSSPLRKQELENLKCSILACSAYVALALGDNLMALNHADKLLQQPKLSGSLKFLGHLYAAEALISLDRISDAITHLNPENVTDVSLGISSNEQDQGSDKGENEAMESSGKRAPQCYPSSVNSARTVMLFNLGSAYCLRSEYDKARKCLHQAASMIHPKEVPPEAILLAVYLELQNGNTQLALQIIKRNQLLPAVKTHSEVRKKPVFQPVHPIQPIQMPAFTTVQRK
UniProt P54105: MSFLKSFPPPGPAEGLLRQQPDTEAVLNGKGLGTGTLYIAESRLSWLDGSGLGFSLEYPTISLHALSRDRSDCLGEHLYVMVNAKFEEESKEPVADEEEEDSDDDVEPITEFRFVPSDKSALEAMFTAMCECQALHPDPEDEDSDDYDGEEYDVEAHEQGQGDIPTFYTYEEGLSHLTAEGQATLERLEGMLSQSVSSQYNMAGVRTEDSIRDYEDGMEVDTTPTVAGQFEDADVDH

The targets below were run with CN1C2=C(C3=C1C(=O)N(N=C3)CC4=CC(=CC=C4)N)SC(=C2)S(=O)C (assay: log2 fold change, soluble protein after heating vs DMSO (PISA); higher = thermal stabilisation; K562 cells, 10 uM, 30 min; active = over 0.2 and 3.5 SD of the protein, either way, in both replicates (recomputed)).
Outline: (§1)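 Thermal stability values are relative to control samples and come from duplicates. They are expressed as log2 fold changes. For measurement, K562 cells (2×10^6 cells/mL) received 10 μM compound for 30 min, and aliquots were heated for 3 min over 48°C-58°C, pooled, and extracted at 4°C in PBS with 0.5% NP-40. Soluble protein, the supernatant after 21,000xg for 90 min, was quantified by TMTpro 16plex LC-MS/MS with equalised channel sums.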
With CMAS (UniProt Q8NFW8) the log2 fold change was inactive: 0.125. With CKMT1A (UniProt P12532) the log2 fold change was inactive: -0.03. CLIP1 isoform 1 (UniProt P30622) was tested, and the log2 fold change was inactive: -0.057. For CIAO2A (UniProt Q9H5X1), the log2 fold change was inactive: -0.038. In the case of CNBP isoform 6 (UniProt P62633), the log2 fold change is reported as inactive: 0.035. In the case of CMPK1 (UniProt P30085), the log2 fold change is reported as inactive: -0.088. With CLPP (UniProt Q16740) the log2 fold change was inactive: 0. In the case of CLPTM1L (UniProt Q96KA5), the log2 fold change is reported as inactive: -0.023. CMC2 (UniProt Q9NRP2) was tested, and the log2 fold change was inactive: -0.013. With CISD2 (UniProt Q8N5K1) the log2 fold change was inactive: -0.042. For CMTM6 (UniProt Q9NX76), the log2 fold change was inactive: -0.056. CISD1 (UniProt Q9NZ45) was tested, and the log2 fold change was inactive: -0.031. In the case of CLPB isoform 2 (UniProt Q9H078), the log2 fold change is reported as inactive: -0.087. With CNOT9 isoform 2 (UniProt Q92600) the log2 fold change was inactive: -0.02.

The targets below were run with CN1CCC(CNc2ccc3ncc(-c4cccc(OC(F)(F)F)c4)n3n2)CC1 in the same assay as above.
Outline: as §1
CISD3 (UniProt P0C7P0) was tested, and the log2 fold change was inactive: -0.151. For CLTA isoform 2 (UniProt P09496), the log2 fold change was inactive: 0.08. CMSS1 (UniProt Q9BQ75) was tested, and the log2 fold change was inactive: 0.056. With COA3 (UniProt Q9Y2R0) the log2 fold change was inactive: 0. For CKB (UniProt P12277), the log2 fold change was inactive: -0.056. In the case of CNP (UniProt P09543), the log2 fold change is reported as inactive: 0. CNOT6L (UniProt Q96LI5) was tested, and the log2 fold change was inactive: -0.075. For CLCN7 (UniProt P51798), the log2 fold change was active: -1.05. With CLEC16A (UniProt Q2KHT3) the log2 fold change was inactive: -0.002. CLTB (UniProt P09497) was tested, and the log2 fold change was inactive: 0.106. In the case of COA7 (UniProt Q96BR5), the log2 fold change is reported as inactive: -0.065. With CLASP1 (UniProt Q7Z460) the log2 fold change was inactive: -0.238. In the case of CNTN4 (UniProt Q8IWV2), the log2 fold change is reported as inactive: -0.102. In the case of CKAP5 (UniProt Q14008), the log2 fold change is reported as inactive: -0.17. With CNOT10 isoform 6 (UniProt Q9H9A5) the log2 fold change was inactive: -0.074. For CLIC1 (UniProt O00299), the log2 fold change was inactive: 0.026. For CLNS1A (UniProt P54105), the log2 fold change was inactive: 0.023. In the case of CMAS (UniProt Q8NFW8), the log2 fold change is reported as inactive: 0.05. For CKMT1A (UniProt P12532), the log2 fold change was inactive: -0.023. With CLIP1 isoform 1 (UniProt P30622) the log2 fold change was inactive: -0.023. For CIAO2A (UniProt Q9H5X1), the log2 fold change was inactive: -0.131. In the case of CNBP isoform 6 (UniProt P62633), the log2 fold change is reported as inactive: 0.117. With CMPK1 (UniProt P30085) the log2 fold change was inactive: -0.01. For CLPP (UniProt Q16740), the log2 fold change was inactive: 0.081. CLPTM1L (UniProt Q96KA5) was tested, and the log2 fold change was inactive: -0.188. In the case of CMC2 (UniProt Q9NRP2), the log2 fold change is reported as inactive: 0.066. In the case of CISD2 (UniProt Q8N5K1), the log2 fold change is reported as inactive: 0.121. CISD1 (UniProt Q9NZ45) was tested, and the log2 fold change was inactive: -0.017. For CLPB isoform 2 (UniProt Q9H078), the log2 fold change was inactive: -0.095. In the case of CNOT9 isoform 2 (UniProt Q92600), the log2 fold change is reported as inactive: -0.053.
